# The supplement of paper PMC10849652
# Amino acid sequences for entries named in this document (tags omitted). A change or cut given only in a name is not applied to a line headed by its entry.
# UniProt O75937: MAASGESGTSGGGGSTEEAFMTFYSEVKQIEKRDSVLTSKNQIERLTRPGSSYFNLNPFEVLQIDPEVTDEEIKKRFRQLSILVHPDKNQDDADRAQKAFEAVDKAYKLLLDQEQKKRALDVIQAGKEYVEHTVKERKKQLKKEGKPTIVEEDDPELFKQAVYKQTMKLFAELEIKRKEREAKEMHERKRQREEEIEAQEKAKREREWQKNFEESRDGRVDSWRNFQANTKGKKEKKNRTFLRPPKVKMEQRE
# UniProt P60981: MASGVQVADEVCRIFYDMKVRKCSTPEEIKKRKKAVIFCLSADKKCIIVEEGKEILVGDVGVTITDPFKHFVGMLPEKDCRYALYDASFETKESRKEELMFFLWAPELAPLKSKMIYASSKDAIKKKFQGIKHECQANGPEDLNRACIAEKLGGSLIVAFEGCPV
# UniProt Q96EY1: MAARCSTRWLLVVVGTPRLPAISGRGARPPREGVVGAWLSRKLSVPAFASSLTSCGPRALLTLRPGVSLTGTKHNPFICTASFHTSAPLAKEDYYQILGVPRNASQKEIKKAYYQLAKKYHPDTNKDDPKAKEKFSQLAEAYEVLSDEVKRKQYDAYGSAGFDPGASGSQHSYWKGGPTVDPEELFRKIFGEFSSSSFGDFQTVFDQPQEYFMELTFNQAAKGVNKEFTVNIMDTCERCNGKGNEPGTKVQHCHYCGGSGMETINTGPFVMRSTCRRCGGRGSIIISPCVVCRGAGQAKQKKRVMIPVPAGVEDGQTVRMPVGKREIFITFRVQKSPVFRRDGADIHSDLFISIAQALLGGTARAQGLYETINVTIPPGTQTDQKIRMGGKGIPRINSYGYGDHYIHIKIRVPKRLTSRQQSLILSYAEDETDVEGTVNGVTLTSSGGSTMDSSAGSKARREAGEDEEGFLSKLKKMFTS
# UniProt Q5F1R6: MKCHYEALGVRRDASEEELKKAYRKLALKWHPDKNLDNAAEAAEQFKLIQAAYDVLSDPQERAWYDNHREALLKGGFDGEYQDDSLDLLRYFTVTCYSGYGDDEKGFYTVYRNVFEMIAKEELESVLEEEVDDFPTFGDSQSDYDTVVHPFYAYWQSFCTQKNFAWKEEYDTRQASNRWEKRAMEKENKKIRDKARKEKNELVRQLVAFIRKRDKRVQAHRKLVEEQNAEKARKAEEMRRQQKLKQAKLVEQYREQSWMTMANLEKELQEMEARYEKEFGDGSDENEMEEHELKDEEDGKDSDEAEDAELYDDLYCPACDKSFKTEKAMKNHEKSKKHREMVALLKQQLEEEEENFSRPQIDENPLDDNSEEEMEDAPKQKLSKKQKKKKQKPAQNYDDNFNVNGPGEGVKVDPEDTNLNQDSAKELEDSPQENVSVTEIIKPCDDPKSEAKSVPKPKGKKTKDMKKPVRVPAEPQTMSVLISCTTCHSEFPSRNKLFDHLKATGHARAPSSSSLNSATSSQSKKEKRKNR
# UniProt Q9Y6G9, whole entry, looked up: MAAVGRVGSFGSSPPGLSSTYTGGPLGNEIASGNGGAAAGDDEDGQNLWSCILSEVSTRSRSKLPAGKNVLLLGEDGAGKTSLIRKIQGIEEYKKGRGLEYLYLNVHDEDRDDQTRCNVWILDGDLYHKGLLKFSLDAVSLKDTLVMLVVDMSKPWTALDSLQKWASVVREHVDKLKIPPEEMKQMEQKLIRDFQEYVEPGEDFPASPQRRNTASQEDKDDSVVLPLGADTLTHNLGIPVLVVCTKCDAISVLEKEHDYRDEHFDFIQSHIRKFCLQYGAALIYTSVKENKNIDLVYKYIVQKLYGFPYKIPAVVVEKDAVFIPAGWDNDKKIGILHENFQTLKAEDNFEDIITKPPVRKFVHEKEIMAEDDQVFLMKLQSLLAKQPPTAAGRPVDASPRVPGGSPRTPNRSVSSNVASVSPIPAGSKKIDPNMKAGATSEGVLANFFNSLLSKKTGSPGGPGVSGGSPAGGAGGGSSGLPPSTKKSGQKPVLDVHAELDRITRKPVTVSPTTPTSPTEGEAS
# UniProt Q9UBS4: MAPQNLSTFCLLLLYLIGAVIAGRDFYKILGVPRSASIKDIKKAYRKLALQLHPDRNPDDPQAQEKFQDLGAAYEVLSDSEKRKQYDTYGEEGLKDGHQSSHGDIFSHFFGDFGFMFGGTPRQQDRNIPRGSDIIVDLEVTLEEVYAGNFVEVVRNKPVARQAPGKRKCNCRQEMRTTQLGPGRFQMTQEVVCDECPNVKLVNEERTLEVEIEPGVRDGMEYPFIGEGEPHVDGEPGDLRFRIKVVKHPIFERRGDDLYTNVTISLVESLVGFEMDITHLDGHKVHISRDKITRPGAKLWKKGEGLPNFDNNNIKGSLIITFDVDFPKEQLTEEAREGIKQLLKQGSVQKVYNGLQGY
# UniProt Q9NP97, whole entry, looked up: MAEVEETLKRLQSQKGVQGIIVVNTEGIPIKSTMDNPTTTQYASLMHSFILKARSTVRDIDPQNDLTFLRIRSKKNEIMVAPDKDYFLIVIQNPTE
# UniProt Q5JSL3: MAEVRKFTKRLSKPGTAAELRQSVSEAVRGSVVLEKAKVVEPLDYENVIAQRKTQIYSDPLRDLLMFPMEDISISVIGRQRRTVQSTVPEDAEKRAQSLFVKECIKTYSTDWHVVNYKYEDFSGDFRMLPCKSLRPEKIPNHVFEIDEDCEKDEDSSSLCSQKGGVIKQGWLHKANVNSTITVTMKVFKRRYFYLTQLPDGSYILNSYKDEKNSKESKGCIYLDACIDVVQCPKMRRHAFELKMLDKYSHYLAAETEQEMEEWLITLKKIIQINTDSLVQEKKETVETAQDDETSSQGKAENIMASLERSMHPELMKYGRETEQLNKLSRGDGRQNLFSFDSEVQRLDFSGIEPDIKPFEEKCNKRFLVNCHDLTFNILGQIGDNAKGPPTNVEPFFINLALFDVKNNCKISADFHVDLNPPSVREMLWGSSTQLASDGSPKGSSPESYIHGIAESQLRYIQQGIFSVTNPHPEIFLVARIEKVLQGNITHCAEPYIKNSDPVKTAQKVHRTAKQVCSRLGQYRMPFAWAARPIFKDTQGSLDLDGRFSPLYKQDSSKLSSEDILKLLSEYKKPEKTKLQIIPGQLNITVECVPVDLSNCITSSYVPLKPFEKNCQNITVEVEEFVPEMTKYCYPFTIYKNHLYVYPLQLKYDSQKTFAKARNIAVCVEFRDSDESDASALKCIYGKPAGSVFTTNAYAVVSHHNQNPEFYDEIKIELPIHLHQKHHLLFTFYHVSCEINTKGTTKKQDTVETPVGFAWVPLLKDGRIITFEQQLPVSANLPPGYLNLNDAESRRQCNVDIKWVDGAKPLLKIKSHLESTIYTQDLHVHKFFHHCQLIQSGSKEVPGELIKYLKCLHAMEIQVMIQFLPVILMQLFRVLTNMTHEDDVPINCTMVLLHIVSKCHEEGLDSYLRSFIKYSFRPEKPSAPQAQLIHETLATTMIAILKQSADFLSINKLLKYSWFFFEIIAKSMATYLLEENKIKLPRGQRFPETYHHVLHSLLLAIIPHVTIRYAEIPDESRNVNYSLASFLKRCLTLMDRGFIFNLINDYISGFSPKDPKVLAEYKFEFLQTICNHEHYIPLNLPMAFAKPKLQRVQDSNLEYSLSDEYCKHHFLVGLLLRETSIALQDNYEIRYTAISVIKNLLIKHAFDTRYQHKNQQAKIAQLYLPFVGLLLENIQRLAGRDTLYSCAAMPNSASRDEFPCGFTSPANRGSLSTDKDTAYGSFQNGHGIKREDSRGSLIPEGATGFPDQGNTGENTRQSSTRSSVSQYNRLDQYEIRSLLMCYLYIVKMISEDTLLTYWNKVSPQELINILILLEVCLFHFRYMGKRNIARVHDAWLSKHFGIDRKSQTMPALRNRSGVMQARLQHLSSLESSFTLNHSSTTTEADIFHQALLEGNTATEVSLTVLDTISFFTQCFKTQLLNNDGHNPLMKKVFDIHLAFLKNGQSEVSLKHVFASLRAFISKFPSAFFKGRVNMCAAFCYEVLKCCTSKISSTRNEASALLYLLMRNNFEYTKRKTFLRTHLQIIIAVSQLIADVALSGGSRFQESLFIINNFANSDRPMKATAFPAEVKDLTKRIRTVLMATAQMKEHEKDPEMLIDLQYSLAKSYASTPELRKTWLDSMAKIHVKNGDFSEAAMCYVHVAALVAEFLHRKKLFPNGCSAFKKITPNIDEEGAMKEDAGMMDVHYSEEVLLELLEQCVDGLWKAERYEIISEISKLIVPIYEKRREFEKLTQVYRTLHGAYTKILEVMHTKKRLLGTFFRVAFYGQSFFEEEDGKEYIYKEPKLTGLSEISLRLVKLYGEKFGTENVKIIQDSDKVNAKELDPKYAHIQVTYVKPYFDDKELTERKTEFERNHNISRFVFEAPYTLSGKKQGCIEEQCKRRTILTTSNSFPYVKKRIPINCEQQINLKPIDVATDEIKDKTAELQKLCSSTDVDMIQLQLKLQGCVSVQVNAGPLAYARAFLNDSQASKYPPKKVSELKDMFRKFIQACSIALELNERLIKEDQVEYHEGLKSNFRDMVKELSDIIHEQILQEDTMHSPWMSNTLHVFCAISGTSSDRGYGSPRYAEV
# UniProt Q9UKB3: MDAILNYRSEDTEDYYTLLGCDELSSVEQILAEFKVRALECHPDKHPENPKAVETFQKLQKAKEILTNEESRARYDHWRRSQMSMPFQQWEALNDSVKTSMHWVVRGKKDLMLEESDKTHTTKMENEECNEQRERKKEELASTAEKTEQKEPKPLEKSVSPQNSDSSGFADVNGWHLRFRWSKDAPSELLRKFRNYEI
# UniProt P51452: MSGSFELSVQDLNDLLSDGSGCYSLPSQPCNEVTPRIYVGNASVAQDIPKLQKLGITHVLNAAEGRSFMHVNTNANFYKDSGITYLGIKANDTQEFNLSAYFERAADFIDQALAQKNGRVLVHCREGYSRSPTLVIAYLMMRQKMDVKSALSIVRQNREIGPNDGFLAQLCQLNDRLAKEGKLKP
# UniProt P33316: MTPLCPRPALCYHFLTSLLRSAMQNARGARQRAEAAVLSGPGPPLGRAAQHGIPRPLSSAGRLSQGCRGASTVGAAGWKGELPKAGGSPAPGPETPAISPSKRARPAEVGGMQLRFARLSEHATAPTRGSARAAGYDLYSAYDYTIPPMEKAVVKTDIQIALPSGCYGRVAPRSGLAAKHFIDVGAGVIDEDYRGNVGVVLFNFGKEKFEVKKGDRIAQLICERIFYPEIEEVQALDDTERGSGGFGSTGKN
# UniProt Q7L8W6: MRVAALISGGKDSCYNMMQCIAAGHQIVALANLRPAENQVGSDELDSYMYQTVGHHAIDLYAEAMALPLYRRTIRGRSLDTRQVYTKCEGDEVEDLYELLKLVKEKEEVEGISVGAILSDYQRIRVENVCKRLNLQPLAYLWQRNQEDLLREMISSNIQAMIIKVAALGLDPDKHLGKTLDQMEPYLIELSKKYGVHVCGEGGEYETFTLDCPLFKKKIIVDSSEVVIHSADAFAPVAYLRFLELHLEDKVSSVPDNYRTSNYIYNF
# UniProt Q96FJ2, whole entry, looked up: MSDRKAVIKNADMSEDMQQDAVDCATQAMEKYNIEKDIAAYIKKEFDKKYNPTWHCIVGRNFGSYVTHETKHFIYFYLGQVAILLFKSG
# UniProt Q8IXB1: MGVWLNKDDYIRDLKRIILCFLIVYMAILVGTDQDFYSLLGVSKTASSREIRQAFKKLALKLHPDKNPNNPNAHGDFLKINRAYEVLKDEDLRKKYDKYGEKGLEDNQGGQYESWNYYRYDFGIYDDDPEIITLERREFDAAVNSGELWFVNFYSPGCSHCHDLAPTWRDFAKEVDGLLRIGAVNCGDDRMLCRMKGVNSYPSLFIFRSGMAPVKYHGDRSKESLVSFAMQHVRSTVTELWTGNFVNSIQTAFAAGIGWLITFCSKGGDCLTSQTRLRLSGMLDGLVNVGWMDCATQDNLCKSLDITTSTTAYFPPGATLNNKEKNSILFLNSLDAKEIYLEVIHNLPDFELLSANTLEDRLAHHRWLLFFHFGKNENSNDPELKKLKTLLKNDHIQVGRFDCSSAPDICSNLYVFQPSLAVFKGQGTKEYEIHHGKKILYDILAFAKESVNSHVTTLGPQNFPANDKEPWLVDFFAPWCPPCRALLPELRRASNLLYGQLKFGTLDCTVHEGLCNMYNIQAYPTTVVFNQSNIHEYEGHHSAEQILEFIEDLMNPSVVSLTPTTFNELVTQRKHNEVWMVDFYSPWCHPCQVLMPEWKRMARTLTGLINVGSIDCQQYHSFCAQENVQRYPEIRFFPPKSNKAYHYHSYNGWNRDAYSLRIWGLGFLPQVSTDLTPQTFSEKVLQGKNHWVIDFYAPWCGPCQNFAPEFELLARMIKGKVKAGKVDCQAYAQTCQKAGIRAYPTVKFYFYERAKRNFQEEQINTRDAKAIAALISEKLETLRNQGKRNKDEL
# UniProt Q9NVM6: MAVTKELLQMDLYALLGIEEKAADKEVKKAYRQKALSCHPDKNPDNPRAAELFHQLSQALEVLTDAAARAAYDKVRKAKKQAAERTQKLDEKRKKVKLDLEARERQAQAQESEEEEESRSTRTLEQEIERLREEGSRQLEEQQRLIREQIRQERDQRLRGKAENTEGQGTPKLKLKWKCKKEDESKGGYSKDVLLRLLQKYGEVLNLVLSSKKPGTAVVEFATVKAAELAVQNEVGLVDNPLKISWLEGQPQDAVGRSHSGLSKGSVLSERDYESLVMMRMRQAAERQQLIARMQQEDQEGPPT
# This is one part of the list.
# Compound: CN1CCC(CNc2ccc3ncc(-c4cccc(OC(F)(F)F)c4)n3n2)CC1
# Experiment: log2 fold change, soluble protein after heating vs DMSO (PISA); higher = thermal stabilisation; K562 cells, 10 uM, 30 min; active = over 0.2 and 3.5 SD of the protein, either way, in both replicates (recomputed)
# Outline: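 Soluble protein was defined as the supernatant after 21,000xg for 90 min. It came from K562 cells at 2×10^6 cells/mL given 10 μM compound for 30 min, heated in aliquots for 3 min across 48°C-58°C, pooled, and extracted in PBS with 0.5% NP-40 at 4°C, and was quantified by TMTpro 16plex LC-MS/MS with equalised channel sums. Thermal stability against control samples, from duplicates, is reported as log2 fold change.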
row,Target,log2 fold change
1,DPH2 (UniProt Q9BQC3),inactive: -0.044
2,DPY19L4 (UniProt Q7Z388),inactive: 0.06
3,DNAJC8 (UniProt O75937),inactive: -0.029
4,ECSIT (UniProt Q9BQ95),inactive: -0.004
5,EDARADD (UniProt Q8WWZ3),inactive: -0.017
6,DSTN (UniProt P60981),inactive: -0.026
7,ECI2 (UniProt O75521),inactive: -0.034
8,DSC2 (UniProt Q02487),inactive: -0.162
9,DNAJA3 (UniProt Q96EY1),inactive: 0.016
10,DNAJC21 isoform 3 (UniProt Q5F1R6),inactive: 0.028
11,DYNC1LI1 (UniProt Q9Y6G9),inactive: -0.025
12,DNM1L isoform 6 (UniProt O00429),inactive: -0.186
13,ECHS1 (UniProt P30084),inactive: 0.058
14,DNAJB11 (UniProt Q9UBS4),inactive: -0.047
15,EDEM1 (UniProt Q92611),inactive: 0.002
16,DYNLRB1 (UniProt Q9NP97),inactive: 0.007
17,DOCK11 (UniProt Q5JSL3),inactive: -0.001

row,Target,log2 fold change
1,DUSP23 (UniProt Q9BVJ7),inactive: 0.178
2,ECM1 isoform 4 (UniProt Q16610),inactive: 0.095
3,DPP3 (UniProt Q9NY33),inactive: -0.183
4,DPP9 isoform 2 (UniProt Q86TI2),inactive: -0.204
5,DNAJC12 (UniProt Q9UKB3),inactive: 0.039
6,DUSP3 (UniProt P51452),inactive: 0.011
7,DUT (UniProt P33316),inactive: -0.056
8,DPH6 (UniProt Q7L8W6),inactive: 0.006
9,DYNLL2 (UniProt Q96FJ2),inactive: -0.062
10,DNAJC10 (UniProt Q8IXB1),inactive: 0.122
11,DYNLL1 (UniProt P63167),inactive: 0.04
12,DNAJC6 isoform 2 (UniProt O75061),inactive: -0.02
13,EDEM3 (UniProt Q9BZQ6),inactive: 0.009
14,DUS4L (UniProt O95620),inactive: 0.041
15,DNAJC11 (UniProt Q9NVH1),inactive: 0.021
16,DNAJC17 (UniProt Q9NVM6),inactive: -0.038

# Random excerpt: 2 entries already listed, in no set order.
row,Target,log2 fold change
11,DYNLL1 (UniProt P63167),inactive: 0.04
12,DNAJC6 isoform 2 (UniProt O75061),inactive: -0.02
